Assay results as given in the supplement of paper PMC8612539.
≈ marks a conversion by molar mass, not a printed value. Further values from the same series stand in other lists.

System: Escherichia coli
Experiment: minimum inhibitory concentration (MIC)
Experimental: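 Broth microdilution MIC (Sensititre BOPO7F bovine plate, CLSI methods) of 19 antimicrobials against field isolates of P. multocida, M. haemolytica, H. somni (deep nasopharyngeal swabs) and E. coli, Enterococcus spp. (rectal swabs) from weaned dairy heifers. Incubation 16-24 h at 35 C. MIC is the lowest concentration preventing visible growth. Values with <= or > lie at the tested range limits. Trimethoprim-sulfamethoxazole is given as the trimethoprim component of a 1:19 mixture.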

CC[C@H]1OC(=O)C[C@@H](O)[C@H](C)[C@@H](O[C@@H]2O[C@H](C)[C@@H](O)[C@H](N(C)C)[C@H]2O)[C@@H](CCN2CCCCC2)C[C@@H](C)C(=O)/C=C/C(C)=C/[C@@H]1CN1CCCCC1 [Tildipirosin]
Details	minimum inhibitory concentration [µg/mL]
isolate (source animal id): 221	4 (≈ 5.45 µM)
isolate (source animal id): 222	4 (≈ 5.45 µM)
isolate (source animal id): 223	4 (≈ 5.45 µM)
isolate (source animal id): 224	4 (≈ 5.45 µM)
isolate (source animal id): 225	8 (≈ 10.9 µM)
isolate (source animal id): 226	4 (≈ 5.45 µM)
isolate (source animal id): 227	2 (≈ 2.72 µM)
isolate (source animal id): 228	2 (≈ 2.72 µM)
isolate (source animal id): 229	8 (≈ 10.9 µM)
isolate (source animal id): 230	4 (≈ 5.45 µM)
isolate (source animal id): 231	8 (≈ 10.9 µM)
isolate (source animal id): 232	8 (≈ 10.9 µM)
isolate (source animal id): 233	2 (≈ 2.72 µM)
isolate (source animal id): 234	4 (≈ 5.45 µM)
isolate (source animal id): 235	4 (≈ 5.45 µM)
isolate (source animal id): 236	4 (≈ 5.45 µM)
isolate (source animal id): 237	4 (≈ 5.45 µM)
isolate (source animal id): 238	4 (≈ 5.45 µM)
isolate (source animal id): 239	2 (≈ 2.72 µM)
isolate (source animal id): 240	4 (≈ 5.45 µM)
isolate (source animal id): 241	4 (≈ 5.45 µM)
isolate (source animal id): 242	4 (≈ 5.45 µM)
isolate (source animal id): 243	4 (≈ 5.45 µM)
isolate (source animal id): 244	8 (≈ 10.9 µM)
isolate (source animal id): 245	4 (≈ 5.45 µM)
isolate (source animal id): 246	8 (≈ 10.9 µM)
isolate (source animal id): 247	2 (≈ 2.72 µM)
isolate (source animal id): 248	4 (≈ 5.45 µM)
isolate (source animal id): 249	4 (≈ 5.45 µM)
isolate (source animal id): 250	4 (≈ 5.45 µM)
isolate (source animal id): 251	4 (≈ 5.45 µM)
isolate (source animal id): 252	4 (≈ 5.45 µM)
isolate (source animal id): 253	4 (≈ 5.45 µM)
isolate (source animal id): 254	4 (≈ 5.45 µM)
isolate (source animal id): 255	4 (≈ 5.45 µM)
isolate (source animal id): 256	8 (≈ 10.9 µM)
isolate (source animal id): 257	4 (≈ 5.45 µM)
isolate (source animal id): 258	4 (≈ 5.45 µM)
isolate (source animal id): 259	4 (≈ 5.45 µM)
isolate (source animal id): 260	8 (≈ 10.9 µM)
isolate (source animal id): 261	4 (≈ 5.45 µM)
isolate (source animal id): 262	4 (≈ 5.45 µM)
isolate (source animal id): 263	4 (≈ 5.45 µM)
isolate (source animal id): 264	8 (≈ 10.9 µM)
isolate (source animal id): 265	8 (≈ 10.9 µM)
isolate (source animal id): 266	2 (≈ 2.72 µM)
isolate (source animal id): 267	2 (≈ 2.72 µM)
isolate (source animal id): 268	4 (≈ 5.45 µM)
isolate (source animal id): 269	4 (≈ 5.45 µM)
isolate (source animal id): 270	8 (≈ 10.9 µM)
isolate (source animal id): 271	2 (≈ 2.72 µM)
isolate (source animal id): 272	4 (≈ 5.45 µM)
isolate (source animal id): 273	4 (≈ 5.45 µM)
isolate (source animal id): 274	4 (≈ 5.45 µM)
isolate (source animal id): 275	2 (≈ 2.72 µM)
isolate (source animal id): 276	8 (≈ 10.9 µM)
isolate (source animal id): 277	4 (≈ 5.45 µM)
isolate (source animal id): 278	8 (≈ 10.9 µM)
isolate (source animal id): 279	8 (≈ 10.9 µM)
isolate (source animal id): 280	8 (≈ 10.9 µM)
isolate (source animal id): 281	4 (≈ 5.45 µM)
isolate (source animal id): 282	4 (≈ 5.45 µM)
isolate (source animal id): 283	4 (≈ 5.45 µM)
isolate (source animal id): 284	4 (≈ 5.45 µM)
isolate (source animal id): 285	2 (≈ 2.72 µM)
isolate (source animal id): 286	8 (≈ 10.9 µM)
isolate (source animal id): 287	4 (≈ 5.45 µM)
isolate (source animal id): 288	4 (≈ 5.45 µM)
isolate (source animal id): 289	4 (≈ 5.45 µM)
isolate (source animal id): 290	4 (≈ 5.45 µM)
isolate (source animal id): 291	4 (≈ 5.45 µM)
isolate (source animal id): 292	4 (≈ 5.45 µM)
isolate (source animal id): 293	4 (≈ 5.45 µM)
isolate (source animal id): 294	≤ 1
isolate (source animal id): 295	4 (≈ 5.45 µM)
isolate (source animal id): 296	4 (≈ 5.45 µM)
isolate (source animal id): 297	2 (≈ 2.72 µM)
isolate (source animal id): 298	4 (≈ 5.45 µM)
isolate (source animal id): 299	4 (≈ 5.45 µM)
isolate (source animal id): 300	2 (≈ 2.72 µM)
isolate (source animal id): 301	4 (≈ 5.45 µM)
isolate (source animal id): 302	4 (≈ 5.45 µM)
isolate (source animal id): 303	8 (≈ 10.9 µM)
isolate (source animal id): 304	4 (≈ 5.45 µM)
isolate (source animal id): 305	4 (≈ 5.45 µM)
isolate (source animal id): 306	4 (≈ 5.45 µM)
isolate (source animal id): 307	4 (≈ 5.45 µM)
isolate (source animal id): 308	4 (≈ 5.45 µM)
isolate (source animal id): 309	4 (≈ 5.45 µM)
isolate (source animal id): 310	4 (≈ 5.45 µM)
isolate (source animal id): 311	4 (≈ 5.45 µM)
isolate (source animal id): 312	2 (≈ 2.72 µM)
isolate (source animal id): 313	4 (≈ 5.45 µM)
isolate (source animal id): 314	4 (≈ 5.45 µM)
isolate (source animal id): 315	8 (≈ 10.9 µM)
isolate (source animal id): 316	4 (≈ 5.45 µM)
isolate (source animal id): 317	2 (≈ 2.72 µM)
isolate (source animal id): 318	2 (≈ 2.72 µM)
isolate (source animal id): 319	4 (≈ 5.45 µM)
isolate (source animal id): 320	8 (≈ 10.9 µM)
isolate (source animal id): 321	2 (≈ 2.72 µM)
isolate (source animal id): 322	4 (≈ 5.45 µM)
isolate (source animal id): 323	4 (≈ 5.45 µM)
isolate (source animal id): 324	4 (≈ 5.45 µM)
isolate (source animal id): 325	4 (≈ 5.45 µM)
isolate (source animal id): 326	2 (≈ 2.72 µM)
isolate (source animal id): 327	2 (≈ 2.72 µM)
isolate (source animal id): 328	8 (≈ 10.9 µM)
isolate (source animal id): 329	4 (≈ 5.45 µM)
isolate (source animal id): 330	4 (≈ 5.45 µM)
isolate (source animal id): 331	4 (≈ 5.45 µM)
isolate (source animal id): 332	4 (≈ 5.45 µM)
isolate (source animal id): 333	4 (≈ 5.45 µM)
isolate (source animal id): 334	4 (≈ 5.45 µM)
isolate (source animal id): 335	4 (≈ 5.45 µM)
isolate (source animal id): 336	8 (≈ 10.9 µM)
isolate (source animal id): 337	4 (≈ 5.45 µM)
isolate (source animal id): 338	4 (≈ 5.45 µM)
isolate (source animal id): 339	4 (≈ 5.45 µM)
isolate (source animal id): 340	4 (≈ 5.45 µM)
isolate (source animal id): 341	4 (≈ 5.45 µM)
